# Measurements from PubChem BioAssay AID1508600 (Functional Genomics Laboratory (NCATS/FGL), 2020).
# Among all 53,000 sequences or so, about 3,700 (7%) were called active.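 The calls were made as follows: active = gene knockdowns whose robust z-score for IL-1 alpha signal is at least 2 or at most -2, so actives lie on both sides; inactive = the rest.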 This is one part of the list.
# Test: Components of the Cytosolic LPS Sensing Pathway: Gene Identification via Genome-wide siRNA Screen;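 also: robust z of the log signal after scaling to non-targeting control siRNA wells of the plate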
# Conditions: RAW264.7 macrophages, IL-1a HTRF, actives lie on both sides, screened at 100 nM (by protocol), cells primed 5 h with Pam3CSK4 first
# Outline: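 RAW264.7 mouse macrophages reverse-transfected with single siRNAs (100 nM final) for 48h, primed with Pam3CSK4 for 5 hours, then transfected with LipidA for 24 hour. Supernatant IL-1a read by HTRF; values normalized to negative-control median, log-transformed robust z-scores.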
row,Sequence,z-score
1,GGCUCUCUUUAGAACAGACTT against Rad17,inactive: 0.479
2,CCAACAAUCAUGGUUAAACTT against Cd300ld,inactive: 0.749
3,CGGUCCUCAGAACAUAUACTT against Rnasek,inactive: -1.43
4,GCAAAUGACUUGCCCAAAUTT against Zfp639,inactive: 0.47
5,CCCAGAAGGAUCUGCUCUUTT against Defa20,active: -2.17
6,GGCUAGCACCAAAUUCUUGTT against Fbxo40,inactive: 0.985
7,CGUGCAGAUCAACGAUAUUTT against Rps5,inactive: 0.111
8,UUUUGCUACUAUCUUGAAGTT against Ugt1a10,inactive: -0.416
9,GGACAUUCUGCUACACAAGTT against Bsx,active: 2.63
10,GGAACAGCUGUGAUUAACGTT against Prdx4,inactive: 0.343
11,CCUUGAAAUACUGAGUGACTT against Tsen2,inactive: -1.12
12,GGCUGAACAGCAAAAAAAATT against Foxn4,inactive: 0.289
13,UGAAGUCUAAUCAGAGCACTT against Olfr50,inactive: 0.723
14,CAGGCUGGUUACUUUGGCUTT against Lhfpl5,inactive: -0.246
15,GGAACUCUGUGGGUGAGAATT against Dock8,inactive: -1.46
16,GGUUUGGUUACAAAAAUACTT against Mmp16,inactive: -0.626
17,GUAACUCGCUUCUUGGUGGTT against Slc22a15,inactive: 0.464
18,GGUUAUUUCCCUGUUUUCATT against Olfr532,inactive: 1.5
19,GGGACUUUGGAUUCAAGCGTT against C4a,inactive: 0.872
20,CGGCUCUUCUUAAAAUUGATT against Rpl35a,inactive: 0.61
21,CGACUUUGGACAAAAAUUGTT against Kdm2a,inactive: 0.638
22,CGAGGACUACUAGAAGAAATT against Trpc1,active: 2.36
23,GCCAAUUUGAAUGGGAUGUTT against Magohb,active: -2.25
24,UUAACUACAAUCCAUCACUTT against Rcan2,inactive: -0.284
25,GCACACACAUCAGUAAAUUTT against Olfr1444,inactive: -0.817
26,CGAAUGUUGAAUCUUCUUGTT against Ift81,inactive: 0.748
27,GGGAAACAAAUUGUUUGCATT against Dnaaf4,inactive: -0.461

# A second format for some results above:
row	Sequence	z-score
6	GGCUAGCACCAAAUUCUUGTT against Fbxo40	inactive: 0.985
9	GGACAUUCUGCUACACAAGTT against Bsx	active: 2.63

# More records follow:

row,Sequence,z-score
1,CCAAACCAGCACAUUGAAGTT against Il12a,inactive: -0.323
2,GGGAAGACGACUGUAAUUGTT against Mrps18a,inactive: 0.517
3,GGAACUGGAGUUUCUUAGCTT against Anp32e,inactive: 0.0536
4,GGUUCACAGAAAUGGAUGATT against Zfp507,active: -2.91
5,GGUCCUAAAAUUUCCUCUUTT against Prdx3,inactive: 0.854
6,GGAGGAACUGGAUUCUUACTT against Eps8l3,inactive: -0.348
7,GGUCUUGGUGAGCAUGAGATT against Lnpep,inactive: -1.08
8,CCCUGAAUAUAUGAAGAGCTT against Rhbdl1,inactive: 0.113
9,GGCCUACGCAUCUUCUACCTT against Mest,inactive: -0.658
10,CCUCUUCCUGCUAAUCAUUTT against Olfr599,inactive: -1.87
11,CCUGUGAAAAUUUUAGUGCTT against Pms1,inactive: -0.208
12,GGGUUGUCCGGGAGAAAGATT against Wscd2,inactive: 0.635
13,GGCGAAUCUCAUUAGGGAGTT against Ndor1,inactive: 0.907
14,GGACUCUGCUUCCAUACUGTT against Pwwp3b,inactive: -0.336
15,GCAUGCUUACGGUCUCCAATT against Ccl1,inactive: 1.59
16,GGUGUCACCAAGAAUGAUGTT against Ceacam10,inactive: 0.415
17,GGAAUGGUAUUUCUAUUGUTT against Plek,inactive: -0.529
18,AAGGGUGCCUUAAAAAAACTT against Olfr136,inactive: 0.0792
19,GGAGAAGGAGAAACAGAAATT against Pmepa1,inactive: -1.27
20,GCUACAUGAUGUUCAUACUTT against Srpx,inactive: 0.38
21,GGGCAAGAGGAUUAUGACATT against Cdc42,inactive: -0.527
22,GGUGGGCACACUUAGGUUUTT against Fam167b,inactive: 1.11
23,GAGAUGAUGGAUGCCCAGCTT against Ndufb7,inactive: 1.67
24,GGAACGAUCGAAACAAGAATT against Rarg,inactive: 0.627
25,GGACUAAUGUCUCCAACUATT against Rdh7,inactive: -0.0194
26,GGUGUGUGACUCAGAUACUTT against Has2,inactive: -1.15
27,GGAAAGAUUUAUUUUGACGTT against Vnn3,inactive: 0.286

# A portion from further up:
row,Sequence,z-score
9,GGCCUACGCAUCUUCUACCTT against Mest,inactive: -0.658
10,CCUCUUCCUGCUAAUCAUUTT against Olfr599,inactive: -1.87
